# Measurements reported in PubChem BioAssay AID1671190 (National Center for Advancing Translational Sciences (NCATS), 2021).
# By UniProt entry, the sequences of proteins in these tests, tags left out. Where a name states a change or a piece, a line headed by the entry shows the natural chain unless it says otherwise.
# UniProt P18054: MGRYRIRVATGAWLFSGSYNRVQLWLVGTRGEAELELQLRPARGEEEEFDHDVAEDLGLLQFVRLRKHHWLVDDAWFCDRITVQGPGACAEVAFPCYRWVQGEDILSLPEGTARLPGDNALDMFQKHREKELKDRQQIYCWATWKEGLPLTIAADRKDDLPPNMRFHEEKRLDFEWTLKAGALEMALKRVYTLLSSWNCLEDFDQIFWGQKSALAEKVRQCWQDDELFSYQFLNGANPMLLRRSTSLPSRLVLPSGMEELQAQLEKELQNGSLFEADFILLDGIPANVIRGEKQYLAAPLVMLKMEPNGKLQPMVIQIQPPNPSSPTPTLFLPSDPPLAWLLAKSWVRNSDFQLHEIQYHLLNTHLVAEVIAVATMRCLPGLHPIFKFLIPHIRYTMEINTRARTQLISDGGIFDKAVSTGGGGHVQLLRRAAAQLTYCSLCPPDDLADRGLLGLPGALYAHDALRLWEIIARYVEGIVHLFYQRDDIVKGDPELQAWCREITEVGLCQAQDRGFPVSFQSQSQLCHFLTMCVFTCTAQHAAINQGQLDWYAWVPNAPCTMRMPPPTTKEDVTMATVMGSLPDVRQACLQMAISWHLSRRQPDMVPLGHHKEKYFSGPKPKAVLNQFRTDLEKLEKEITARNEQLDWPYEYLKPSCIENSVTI
# The campaign covered roughly 580,000 compounds. About 6,100 (1.1%) were called active. Inconclusive results, whose numbers are uncertain, are shown with a selection of clear calls. The call rests on the fitted dose curve; in most records, active means well fitted inhibition curve with a large enough effect; inconclusive means small, poorly fitted or top-dose-only effect, or another doubt; inactive means no such curve, though single readings can be large or run the other way. Where the call is inconclusive, the potency comes from a doubtful curve fit.
# Molecular target: Polyunsaturated fatty acid lipoxygenase ALOX12 (Homo sapiens) (UniProt P18054)
# Assay: Primary qHTS assay for inhibitors of human arachidonate 12S-lipoxygenase (ALOX12): Round 2
# Settings: purified 12hLO, xylenol orange hydroperoxide absorbance; series mostly up to 108 µM
# Method in brief: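 Purified human 12hLO (150 nM final) in 25 mM Hepes, 0.01% Triton X-100, pH 7.0 was preincubated 15 min at room temperature with compound. Then 40 uM arachidonic acid was added, 30 min. Hydroperoxide was read by Fe-XO absorbance ratio 573/405 nm.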
# Potency means the concentration at half of the fitted maximal effect.
row,Compound,Potency
1,Clc1cccc(-c2nc3c4ccccc4ccn3c2CC2CCCCC2)c1,"inconclusive: 11.2 µM [inhibitor, partial curve, poor fit]"
2,COc1ccc(-c2nc(Cn3c(-c4ccc(F)cc4)nc(C)c(CCO)c3=O)c(C)o2)cc1,inactive
3,O=C(O)c1ccc(NC(=S)NC(=O)c2cccc(COc3ccccc3)c2)cc1,active: 7.94 µM
4,O=C(Nc1ccc(NS(=O)(=O)c2ccccc2)cc1)c1ccc(Cl)cc1,inactive
5,CCCCN(C(=O)Cn1nnc2ccccc21)C(C(=O)NCc1ccco1)c1ccncc1 (centres undefined),inactive
6,Cc1oc(-c2ccccc2)nc1C(=O)OCC(=O)NC(C)C(C)C (centres undefined),inactive
7,CCN1C(N(C)CCc2cccs2)=N[C@@H](c2ccccc2)C(C(=O)OC)=C1C,"inconclusive: 50.1 µM [inhibitor, partial curve, poor fit]"
8,Cc1ccc(OCC(=O)Nc2ccc3nc(SCC(=O)N4CCc5ccccc54)sc3c2)cc1,inactive
9,COc1ccccc1CNC(=O)c1ccc(-c2nc(CN3CCc4ccccc43)c(C)o2)cc1,inactive
10,COc1cc(-c2ccnc3nc(C4CCCCC4)nn23)cc(OC)c1OC,inactive
11,COc1ccc(OC)c(NC(=O)C2CCN(c3cnc4nccnc4c3)CC2)c1,inactive
12,COc1ccc(NC(=O)c2cccn2-c2nnc(N3CCCCC3)s2)cc1,inactive
13,COc1ccc(CCn2c(NN=C3CCCC3)nc3c2c(=O)[nH]c(=O)n3C)cc1,"inconclusive: 56.2 µM [inhibitor, partial curve, poor fit]"
14,CC(=O)O[C@@H]1C=C[C@@H](C#Cc2ccc(C(C)(C)C)cc2)O[C@@H]1COC(=O)Nc1ccccc1,"inconclusive: 50.1 µM [inhibitor, partial curve, poor fit]"
15,COc1cccc(NC(=O)C(OC(=O)c2cnc(C)cn2)c2ccccc2)c1 (centres undefined),"inconclusive: 39.8 µM [inhibitor, partial curve, poor fit]"
16,O=C(CCCOC(=O)c1c(Cl)ccc(Cl)c1Cl)c1ccc(Br)cc1,"inconclusive: 50.1 µM [inhibitor, single point]"
17,CCc1noc(-c2cn(C3CCN(C(=O)c4cc(F)ccc4F)C3)nn2)n1 (centres undefined),inactive
18,CCC1CCCCN1C/C=C/c1ccccc1[N+](=O)[O-] (centres undefined),inactive
19,CCc1ccccc1NCC(=O)Nc1ccc(C#N)cc1,"inconclusive: 50.1 µM [inhibitor, partial curve, poor fit]"
20,COc1cc2c(cc1CN1CCN(C(=O)c3cc(OC)c(OC)c(OC)c3)CC1)OCO2,"inconclusive: 0.398 µM [inhibitor, full curve, poor fit]"
21,COC(=O)C1=C(C)N(Cc2ccccc2)C(=NCc2cccc(C(F)(F)F)c2)N[C@H]1c1cccc(F)c1,"inconclusive: 44.7 µM [inhibitor, partial curve, poor fit]"
22,CC(=O)c1ccc(OCCOc2ccccc2Cl)cc1,inactive

row,Compound,Potency
1,CCc1cccc(C)c1NC(=O)COC(=O)CC1CCCC1,"inconclusive: 63.1 µM [inhibitor, partial curve, poor fit]"
2,Cc1ccc(/C=C/c2ccc(N(C)C)cc2)[n+](C)c1,"inconclusive: 100 µM [inhibitor, partial curve, poor fit]"
3,CC(C(=O)NN)n1nnc(N2CCOCC2)n1 (centres undefined),"inconclusive: 7.08 µM [inhibitor, full curve, poor fit]"
4,CCN(Cc1ccncc1)C(=O)c1c(OCC2CC2)cc(=O)n2c1CCCCC2,inactive
5,O=C(O)CCc1cc2n(n1)CCN(C(=O)c1ccccc1-n1cccc1)C2,inactive
6,Cc1c(Cl)cccc1S(=O)(=O)N1CCC(C(=O)NNC(=O)C2CC2)CC1,inactive
7,COc1ccc(CNCc2cn(-c3cccc(F)c3)nc2-c2ccc(C)o2)cc1,active: 44.7 µM
8,CCOC(=O)c1sc(NC(=O)Nc2ccc(F)cc2)nc1C,"inconclusive: 39.8 µM [inhibitor, partial curve]"
9,O=C(NC(=S)Nc1ccc(S(=O)(=O)NC2CCCCC2)cc1)c1cccs1,active: 15.8 µM
10,C=CCOC(=O)C1=C[C@@H](c2ccc(C(F)(F)F)cc2)C[C@@H](OCc2ccc(CO)cc2)O1,"inconclusive: 50.1 µM [inhibitor, partial curve, poor fit]"
11,COc1ccc(C(=O)NCC(=O)OCC(=O)NC23CC4CC(CC(C4)C2)C3)cc1,"inconclusive: 100 µM [inhibitor, single point]"
12,CC(C)(C)N1[C@@H](CC(=O)O)c2cc(C(F)(F)F)ccc2S1(=O)=O,"inconclusive: 25.1 µM [inhibitor, partial curve, poor fit]"
13,Cc1cc(C)n2c(=O)c3ccc(Cl)cc3nc2c1C#N,"inconclusive: 44.7 µM [inhibitor, partial curve, poor fit]"
14,CC(=O)c1ccc(C(=O)N2CCc3c([nH]c4ccccc34)C2c2ccccn2)s1 (centres undefined),"inconclusive: 15.8 µM [inhibitor, partial curve, poor fit]"
15,Nc1nc2c(s1)CCc1ccccc1-2,"inconclusive: 44.7 µM [inhibitor, partial curve, poor fit]"
16,CCOC(=O)c1sc2cccc(F)c2c1S(=O)(=O)N1CCN(c2cccc(Cl)c2)CC1,"inconclusive: 28.2 µM [inhibitor, partial curve, poor fit]"
17,O=C(c1cncc(Br)c1)N1CCN(c2ccc(N3CCOCC3)nn2)CC1,"inconclusive: 100 µM [inhibitor, single point]"
18,CCCCC(=O)NC(N1CCCCC1)C(Cl)(Cl)Cl (centres undefined),"inconclusive: 28.2 µM [inhibitor, partial curve, poor fit]"
19,Cc1csc(NC(=O)c2ccc(C)c([N+](=O)[O-])c2)n1,"inconclusive: 20 µM [inhibitor, partial curve]"
20,NS(=O)(=O)c1ccc(NC(=O)CSc2nnc(NC3CC3)s2)cc1,"inconclusive: 28.2 µM [inhibitor, partial curve]"
21,Cn1c(-c2ccc(Br)o2)nc2cc(Br)ccc21,inactive
22,C[C@H]1CCCCO[C@H](CN(C)C(=O)Nc2ccc(F)cc2)[C@@H](C)CN([C@@H](C)CO)C(=O)c2cc(NC(=O)Nc3ccc4c(c3)OCO4)ccc2O1,"inconclusive: 44.7 µM [inhibitor, partial curve, poor fit]"

# 4 entries drawn at random from those above, as already listed:
row,Compound,Potency
17,CCc1noc(-c2cn(C3CCN(C(=O)c4cc(F)ccc4F)C3)nn2)n1 (centres undefined),inactive
13,Cc1cc(C)n2c(=O)c3ccc(Cl)cc3nc2c1C#N,"inconclusive: 44.7 µM [inhibitor, partial curve, poor fit]"
19,CCc1ccccc1NCC(=O)Nc1ccc(C#N)cc1,"inconclusive: 50.1 µM [inhibitor, partial curve, poor fit]"
7,CCN1C(N(C)CCc2cccs2)=N[C@@H](c2ccccc2)C(C(=O)OC)=C1C,"inconclusive: 50.1 µM [inhibitor, partial curve, poor fit]"
